Test results reported in publication PMC12175362.
Results are given in words; binding and its absence hold for the method and conditions named. Binding seen in cells or lysates may run through a third protein. A yes stands for co-enrichment or nearness to the bait. Other partners may have been found.

Chains of the proteins cited; added tags and fusions are not shown.
UniProt P06733: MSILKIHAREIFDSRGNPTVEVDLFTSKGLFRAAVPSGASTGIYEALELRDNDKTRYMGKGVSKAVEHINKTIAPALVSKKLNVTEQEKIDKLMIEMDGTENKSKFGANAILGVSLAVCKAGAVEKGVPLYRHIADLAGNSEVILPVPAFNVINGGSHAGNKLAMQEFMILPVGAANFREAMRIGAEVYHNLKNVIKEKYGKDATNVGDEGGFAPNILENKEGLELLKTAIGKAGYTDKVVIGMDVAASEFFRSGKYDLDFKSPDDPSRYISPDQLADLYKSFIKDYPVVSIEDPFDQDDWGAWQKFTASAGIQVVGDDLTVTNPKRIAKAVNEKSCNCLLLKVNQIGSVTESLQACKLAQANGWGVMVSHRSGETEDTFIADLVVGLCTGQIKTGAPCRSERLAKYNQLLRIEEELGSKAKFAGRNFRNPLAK

Molecular target: T1, Doublecortin domain containing 2 (DCDC2) (human (endogenous in ICC tissue)) (UniProt Q9UHG0)
T1 sequence: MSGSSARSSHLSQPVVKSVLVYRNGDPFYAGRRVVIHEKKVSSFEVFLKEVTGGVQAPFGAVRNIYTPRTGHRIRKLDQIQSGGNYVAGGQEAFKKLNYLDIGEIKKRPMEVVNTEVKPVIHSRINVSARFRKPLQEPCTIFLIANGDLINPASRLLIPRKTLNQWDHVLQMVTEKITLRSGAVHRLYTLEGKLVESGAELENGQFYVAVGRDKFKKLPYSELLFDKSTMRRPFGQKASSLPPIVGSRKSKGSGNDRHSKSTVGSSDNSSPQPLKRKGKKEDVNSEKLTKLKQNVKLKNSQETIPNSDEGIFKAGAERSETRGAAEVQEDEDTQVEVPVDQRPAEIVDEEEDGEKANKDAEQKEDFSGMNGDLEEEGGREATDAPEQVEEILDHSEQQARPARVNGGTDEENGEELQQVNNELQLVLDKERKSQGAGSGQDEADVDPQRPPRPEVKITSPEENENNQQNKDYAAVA
Test: affinity purification with mass spectrometry; Co-IP with anti-DCDC2 antibody from ICC tissues; specific band of a silver-stained gel analysed by MS

## Enolase 1 (ENO1) (from UniProt P06733 1-434)
  binding: binds
